Test results taken from PubChem BioAssay AID2685 (National Center for Advancing Translational Sciences (NCATS), 2010).
The list shows a part of the results. These are further read-outs of the screen, such as a control signal, another cell line or another target. No call is given for them. Compounds called inactive in the main read-out are mostly missing here. Potencies come from curve fits of mixed quality, noted in brackets.

Assay: qHTS Assay for Lipid Storage Modulators in Drosophila S3 Cells;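 for cell number change: cells counted by Cell Tracker Red CMTPX staining in the red channel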
Settings: BODIPY lipid droplet fluorescence, 18-24 h; for cell number change: measured here: cell count max response, cells fed with added oleic acid
In short: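 Laser-scanning cytometry quantifies lipid droplet accumulation (500–530 nm total intensity; droplet/cell object ratio) in oleic acid-fed (400 uM added) Drosophila S3 cells treated with a concentration series. 20 uM Triacsin C defined 100% inhibition.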

[1] = measured here: cell number channel AC50, cells fed with added oleic acid
[2] = measured here: lipid fluorescence (Fed channel) AC50, cells fed with added oleic acid

Structure (SMILES) | AC50 [1] | AC50 [2] | cell number change
CN(C)NC(=S)Nc1ccc(S(=O)(=O)N2CCCCC2)cc1 | 4.11 µM [falling, single point] | 6.51 µM [falling, single point] | 
COc1ccc(N2CCN(C(=O)COC(=O)/C=C/c3ccc(C(F)(F)F)cc3)CC2)cc1 |  |  | -85.5%
C/C(CC(=O)Nc1cccc2c1CCCC2)=N\NC(=O)COc1ccccc1 | 0.092 µM [rising, full curve, poor fit] |  | -13.1%
CCOc1ccc(S(=O)(=O)Nc2ccc(F)cc2)c(C)c1C | 3.66 µM [rising, partial curve] |  | -132%
Cc1cccc(NC(=S)NC(=O)c2cc(-c3ccccc3)nc3ccccc23)c1 |  | 1.84 µM [rising, partial curve] | 19.2%
O=C1NC[C@@H](Cc2cccc3ccccc23)N(CCC23CC4CC(CC(C4)C2)C3)C1=O |  | 32.6 µM [falling, single point] | 22.1%
COc1ccc(N2CCN(C(=O)CCCn3c(=O)[nH]c4ccsc4c3=O)CC2)cc1 |  | 6.51 µM [falling, single point] | -0.368%
Cc1cc(S(=O)(=O)N2CCC(NC(=O)C34CC5CC(CC(C5)C3)C4)CC2)ccc1-n1cnnn1 |  |  | -19.4%
Cc1ccc(C(=O)/C=C/c2ccc(-c3ccccc3[N+](=O)[O-])o2)cc1 | 18.4 µM [rising, single point] |  | 77.3%
COc1ccc(S(=O)(=O)N(CC(=O)NCc2cccnc2)c2ccc(C)cc2)cc1OC |  | 0.116 µM [rising, single point] | -15.4%
CC(CC(=O)Nc1ccncc1)c1ccccc1 (configuration not stated) |  |  | -1.75%
O=C(COC(=O)C1c2ccccc2Oc2ccccc21)Nc1ccc2c(c1)OCO2 |  | 0.58 µM [falling, single point] | 17.6%
Cc1ccc2nc(Nc3ccc4[nH]c(=O)[nH]c4c3)c(-n3nc(C)cc3C)nc2c1 |  | 0.259 µM [rising, full curve] | -161%
COc1cccc(/C=N/NC(=O)CC2C(=O)NN=C2C)c1O (configuration not stated) |  | 3.66 µM [falling, full curve] | 14.6%
O=C(O)/C=C/c1ccc2c(-c3ccccc3)onc2c1 |  | 2.31 µM [rising, partial curve, poor fit] | -18.4%
CSc1oc(-c2ccco2)nc1S(=O)(=O)c1ccc(Br)cc1 | 2.06 µM [rising, partial curve] | 6.51 µM [rising, single point] | 
CC(C)C(NC(=O)COc1ccc2ccccc2c1)C(=O)N/N=C/C=C/c1ccccc1 (configuration not stated) | 4.61 µM [rising, full curve] | 6.51 µM [rising, partial curve] | 97.2%

2 records picked at random from those above, as already listed:
Structure (SMILES) | AC50 [1] | AC50 [2] | cell number change
COc1ccc(N2CCN(C(=O)COC(=O)/C=C/c3ccc(C(F)(F)F)cc3)CC2)cc1 |  |  | -85.5%
CC(CC(=O)Nc1ccncc1)c1ccccc1 (configuration not stated) |  |  | -1.75%
